About 170 (0.05%) of roughly 340,000 compounds were called active. Inconclusive results, whose numbers are uncertain, are shown with a selection of clear calls. The call rests on the fitted dose curve; in most records, active means well fitted inhibition curve with a large enough effect in the signal ratio, with a control signal flat (not every such curve was filed as active); inconclusive means small, poorly fitted or top-dose-only effect, or effect the other way, or a change in a side signal; inactive means flat fitted curve, though single readings scatter; the % refers to the signal ratio. Potencies of inconclusive entries are doubtful fits and often do not repeat.
Assay: qHTS Assay to Find Inhibitors of Chronic Active B-Cell Receptor Signaling;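 on activity change, negative = inhibition: plate controls were basal doxycycline-induced cells for no effect and cells given 10 µM MG132 for full effect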
Details: ABC-DLBCL IkBa-CBG/CBR reporter, luminescence ratio (green luciferase fused to IkBa over red control in TMD8 lymphoma cells), 4 h; activity change, negative = inhibition: at 46.1 µM (top of the series)
How it was run: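 TMD8 human ABC-DLBCL cells with doxycycline-inducible IκBα–green luciferase fusion and unfused red luciferase, in 0.5% FBS medium; compounds up to 46 uM, 4 h at 37C. Green/red luminescence ratio, filter-overlap corrected, fitted to concentration-response curves.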
Potency means the concentration at half of the fitted maximal effect.

Compound | Potency | activity change, negative = inhibition
Cc1ccc(N=N/C(=C\O)C(=O)c2ccc(Cl)cc2)cc1 | inconclusive: 20 µM [falling, partial curve, poor fit] | 
O=C(Nc1nc(-c2ccc(F)cc2)cs1)C1CCN(C(=O)c2ccc(F)cc2)CC1 |  | inconclusive: 9.95%
CCOC(=O)CNC(=O)c1ccc(Cl)s1 |  | inactive: 0.937%
C/C(=N/O)c1ccccn1 |  | inactive: -1.96%
COc1ccc(C)cc1NS(=O)(=O)c1cccc2nonc12 |  | inactive: 7.54%
CCN(CC)S(=O)(=O)c1ccc(/C=C/C(=O)NC2CCCCC2)cc1 |  | inconclusive: 1.49%
O=c1c2c3c(sc2nc2n1CCCCC2)CCC3 |  | inconclusive: 21.3%
CC1CN(C(=O)CCNS(=O)(=O)c2ccc(Br)cc2)CC(C)O1 (stereo not drawn) |  | inactive: 1.94%
O=C(O)CNC(=O)c1ccc(S(=O)(=O)N2CCOCC2)cc1 |  | inconclusive: 0.826%
CC(C)n1c(O)c(N=Nc2ccc(Cl)c(C(=O)O)c2)c2ccccc21 | inconclusive: 35.5 µM [falling, single point] | 
Cc1cc(/C=N/NC(=O)c2cccs2)c(C)n1-c1cnccn1 | inconclusive: 35.5 µM [falling, single point] | 
CSCCC(NC(=O)COc1ccccc1)C(=O)N(C)Cc1cccc(F)c1 (stereo not drawn) |  | inconclusive: -0.127%
O=C(NCC12CC3CC(CC(C3)C1)C2)c1cc2nc(-c3ccc(F)cc3)cc(C(F)(F)F)n2n1 |  | inactive: 2.29%
CC(C)CNc1cc(N2CCCC2)ccc1[N+](=O)[O-] |  | inconclusive: -5.9%
Cc1cccc(C(=O)NCC(=O)OCC(=O)N2CCN(S(=O)(=O)c3ccc(C)cc3C)CC2)c1 |  | inconclusive: 6.75%
Cc1ccc(N2CC(C(=O)N3CCC4(CC3)CC(=O)c3ccccc3O4)CC2=O)cc1C (stereo not drawn) |  | inactive: -3.76%
CCOc1ccc(S(=O)(=O)NCc2cccnc2)cc1NC(=O)c1ccccc1F |  | inactive: 4.87%
COc1ccccc1NC(=S)NNC(=O)c1ccc(Cl)cc1Cl | inconclusive: 14.6 µM [falling, partial curve, poor fit] | 
COc1cccc(CNC(=O)CCS(=O)(=O)c2cccc3nsnc23)c1 | inconclusive: 18.4 µM [falling, partial curve, poor fit] | 
O=C(Cn1nc(C(F)(F)F)c2c1CCCC2)NC1CCCC1 |  | inactive: 1.35%
O=C(c1ccc(Cl)cc1)c1cc(-c2ccccn2)c(N2CCOCC2)s1 |  | inconclusive: 2.43%
O=C(O)c1ccc(/C=N/Nc2ncc(C(F)(F)F)cc2Cl)cc1 | inconclusive: 2.24 µM [falling, full curve, poor fit] | 
CCCCCC(=O)Nc1cccc(-c2nc3ncccc3o2)c1 |  | inactive: 0.147%

By substructure: the compounds so far containing four or more nitrogen atoms
Compound | Potency | activity change, negative = inhibition
Cc1cc(/C=N/NC(=O)c2cccs2)c(C)n1-c1cnccn1 | inconclusive: 35.5 µM [falling, single point] | 
O=C(NCC12CC3CC(CC(C3)C1)C2)c1cc2nc(-c3ccc(F)cc3)cc(C(F)(F)F)n2n1 |  | inactive: 2.29%
